For one substance, binding results are on record in publication PMC8294762.

The chains behind the UniProt entries cited, without tags or fusion partners.
UniProt P56959: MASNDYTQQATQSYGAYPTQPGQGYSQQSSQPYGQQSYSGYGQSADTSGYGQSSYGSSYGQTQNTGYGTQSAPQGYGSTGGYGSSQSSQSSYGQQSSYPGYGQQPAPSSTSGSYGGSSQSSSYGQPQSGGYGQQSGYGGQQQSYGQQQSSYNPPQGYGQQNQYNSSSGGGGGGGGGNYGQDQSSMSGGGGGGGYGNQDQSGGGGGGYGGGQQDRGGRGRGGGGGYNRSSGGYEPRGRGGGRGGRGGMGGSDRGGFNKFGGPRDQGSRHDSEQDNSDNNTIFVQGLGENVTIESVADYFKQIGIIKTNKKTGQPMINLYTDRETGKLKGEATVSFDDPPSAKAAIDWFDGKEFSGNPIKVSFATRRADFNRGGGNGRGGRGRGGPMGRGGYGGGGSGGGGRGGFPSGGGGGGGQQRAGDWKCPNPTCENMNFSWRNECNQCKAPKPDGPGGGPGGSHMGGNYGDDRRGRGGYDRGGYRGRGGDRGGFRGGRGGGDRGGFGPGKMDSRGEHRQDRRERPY
UniProt P97801: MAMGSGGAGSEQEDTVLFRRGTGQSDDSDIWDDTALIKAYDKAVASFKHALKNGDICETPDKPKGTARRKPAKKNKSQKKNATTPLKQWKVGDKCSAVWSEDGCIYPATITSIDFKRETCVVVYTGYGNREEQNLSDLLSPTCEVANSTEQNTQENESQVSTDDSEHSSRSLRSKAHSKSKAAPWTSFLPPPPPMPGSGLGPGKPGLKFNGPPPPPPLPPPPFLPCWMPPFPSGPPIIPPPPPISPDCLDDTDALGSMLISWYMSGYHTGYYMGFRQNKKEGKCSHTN

These are yes or no findings as the source states them, for the method shown. In cells and extracts the contact can be indirect. Some entries that bind do so weakly or less than the wild type.

In the experiment the target is wild-type FUS (FUsed in Sarcoma), mouse, endogenous (mouse (endogenous in embryonic brain)) (UniProt P56959). Kind of experiment: co-IP; E12.5-14.5 mouse brains homogenised in 20 mM HEPES pH 7.4, 150 mM NaCl, 10% glycerol; 1 mg lysate, 2 μg antibody or IgG control overnight, Protein A Sepharose; which protein was precipitated is not told.

Turning to “Survival Motor Neuron (SMN), mouse, endogenous (from UniProt P97801 1-288)”, the binding result is “binds”.
